According to PubChem BioAssay AID602313 (National Center for Advancing Translational Sciences (NCATS), 2012):
Several values for one entry are separate records, joined by “and”; a condition that tells them apart may be missing. Equal entries are not always repeated. The campaign covered roughly 390,000 compounds. About 760 (0.19%) were called active. The inconclusive results got no clear call from the source; some entries with a clear call stand among them for comparison. The call rests on the fitted dose curve; in most records, active means well fitted inhibition curve with a large enough effect; inconclusive means small, poorly fitted or top-dose-only effect; inactive means flat fitted curve, though single readings scatter. Where the call is inconclusive, the potency comes from a doubtful curve fit.

Assay: qHTS for Inhibitors of Vif-A3F Interactions: qHTS; further: nearly all actives have a fitted effect of over 65% in size; on activity, negative = active: % of control where 0% means no effect
Settings: HeLa A3F-eYFP + Vif (tagged APOBEC3F with the HIV-1 protein that degrades it), YFP fluorescence increase; series mostly up to 46.1 µM; activity, negative = active: at the top concentration
Summary of the method: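 HeLa cells stably expressing Vif plus C-terminally eYFP-tagged A3F were seeded, incubated overnight at 37 deg C, dosed with compound, incubated overnight again at 37 deg C. Yellow fluorescence (Ex 488/Em 500-530) reported blocked Vif-mediated A3F-eYFP degradation.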
Potency means the concentration at half of the fitted maximal effect.

| SMILES | Potency | activity, negative = active |
| --- | --- | --- |
| COc1ccc(C(=O)NC(=S)N2CCOCC2)cc1[N+](=O)[O-] | inconclusive: 35.5 µM [inhibitor, single point] | – |
| COc1ccc2sc(-c3ccccc3OC)c(C#Cc3cncn3C)c2c1 | inconclusive: 6.31 µM [inhibitor, single point] | – |
| NC(=O)c1ccc(NC(=O)c2ccc(COc3ccccc3Br)cc2)cc1 | inconclusive: 3.55 µM [inhibitor, single point] | – |
| Cc1ccccc1/[N+]([O-])=C/c1cccs1 | inconclusive: 6.31 µM [inhibitor, single point] | – |
| COc1ccccc1C(=O)NCc1nnc(SCC(=O)Nc2nccs2)n1C | inconclusive: 1.78 µM [inhibitor, partial curve, poor fit] | – |
| CS(=O)(=O)Nc1cccc(C2=NN(C(=O)CCCC(=O)O)C(c3cccs3)C2)c1 (stereo not drawn) | inconclusive: 35.5 µM [inhibitor, single point] | – |
| CCOC(=O)c1ccc(N/C=C2\CCCCC2=O)cc1 | inconclusive: 35.5 µM [inhibitor, single point] | – |
| COc1ccc(C(=O)c2sc3nc(C)cc(-c4cccs4)c3c2N)cc1OC | inconclusive: 20 µM [inhibitor, partial curve, poor fit] | – |
| CC(=O)Nc1ccc(S(=O)(=O)N2CCC(c3nnc(-c4ccc(C)cc4)o3)CC2)cc1 | inconclusive: 2.24 µM [inhibitor, partial curve, poor fit] and inconclusive: 11.2 µM [inhibitor, partial curve, poor fit] | – |
| Cc1oc2c(cc(NS(=O)(=O)c3ccc(C(C)C)cc3)c3ccccc32)c1C(=O)O | inconclusive: 11.2 µM [inhibitor, partial curve, poor fit] | – |
| COc1ccc(NC(=O)CCn2c(=O)c3cccn3c3cccnc32)cc1Cl | inconclusive: 35.5 µM [inhibitor, single point] | – |
| CC(C)CN(C(=O)COC(=O)Cc1cccc2ccccc12)c1c(N)n(Cc2ccccc2)c(=O)[nH]c1=O | inconclusive: 7.94 µM [inhibitor, partial curve, poor fit] | – |
| CCOC(=O)c1c(NC(=O)C(C)OC(=O)c2ccc(NC(=O)CC#N)cc2)sc2c1CCCC2 (stereo not drawn) | inconclusive: 25.1 µM [inhibitor, single point] | – |
| O=C(Nc1cc(C(F)(F)F)ccc1-n1cncn1)c1ccc([N+](=O)[O-])o1 | active: 12.6 µM | – |
| CC(=O)Nc1ccc(S(=O)(=O)N2CCN(c3nc4ccccc4n3CC(C)C)CC2)cc1 | inconclusive: 17.8 µM [inhibitor, partial curve, poor fit] | – |
| COc1ccccc1NOC(=O)CCOc1ccccc1 | inconclusive: 2.82 µM [inhibitor, full curve, poor fit] | – |
| CCCn1c(=O)c2[nH]cnc2n(-c2ccc(Cl)cc2)c1=O | inconclusive: 35.5 µM [inhibitor, partial curve, poor fit] | – |
| CC(C)(C)c1ccc(Cn2c(=O)cnc3ccccc32)cc1 | inconclusive: 10 µM [inhibitor, partial curve] | – |
| Cc1ccc(C)c(N2CCN(C(=O)CCCN3C(=S)NC(C)(C)CC3C)CC2)c1 (stereo not drawn) | inconclusive: 35.5 µM [inhibitor, single point] | – |
| CC1(c2ccc3c(c2)OCCO3)NC(=O)N(CC(=O)Nc2ccccc2SCC#N)C1=O (stereo not drawn) | inconclusive: 31.6 µM [inhibitor, single point] | – |
| Cc1nn(CC(=O)c2ccc(Br)s2)c(C)c1[N+](=O)[O-] | inconclusive: 14.1 µM [inhibitor, partial curve, poor fit] | – |

| SMILES | Potency | activity, negative = active |
| --- | --- | --- |
| Cc1cc(/C=C2\SC(=S)N(C)C2=O)c(C)n1-c1ccccc1O | active: 11.2 µM | – |
| CC(Sc1nnc(-c2ccccc2F)o1)C(=O)Nc1ccc(N2CCOCC2)cc1 (stereo not drawn) | inconclusive: 4.47 µM [inhibitor, single point] | – |
| O=[N+]([O-])c1ccc(N/N=C/c2ccc[nH]2)cc1 | inconclusive: 22.4 µM [inhibitor, single point] | – |
| O=C(Nc1cccc(-c2nn[nH]n2)c1)c1csc2c1CCCC2 | inconclusive: 12.6 µM [inhibitor, single point] | – |
| COC(=O)c1ccc(N2NC(=O)/C(=C/c3cc(OC)c(OC)c(OC)c3)C2=O)cc1 | inconclusive: 35.5 µM [inhibitor, single point] | – |
| COc1ccc(-c2cc(C(F)(F)F)n3nc(C(=O)Nc4c(C)n(C)n(-c5ccccc5)c4=O)cc3n2)cc1 | – | inactive: 3.26% |
| O=C(O)CCc1ccc(-c2ccc(Cl)cc2)n1CC(=O)Nc1ccccc1 | inconclusive: 6.31 µM [inhibitor, single point] | – |
| C#CCn1c(=NC(=O)c2ccco2)sc2cccc(Cl)c21 | inconclusive: 6.31 µM [inhibitor, partial curve, poor fit] | – |
| COCc1cc(C)nc2sc(C(=O)Nc3ccc(OC(F)(F)F)cc3)c(N)c12 | – | inactive: -5.26% |
| CCN1C(=O)c2cccc3c(NC(=O)c4ccc5c(c4)OCCO5)ccc1c23 | inconclusive: 22.4 µM [inhibitor, partial curve, poor fit] | – |
| O=C(Oc1ccc2ccccc2c1)c1ccco1 | – | inactive: 0.978% |
| Cc1noc(/C=C/c2ccc(-c3ccccc3Cl)o2)c1[N+](=O)[O-] | inconclusive: 2.82 µM [inhibitor, full curve, poor fit] | – |
| COc1cc(/C=C2\SC(=S)N(Nc3ccccc3)C2=O)ccc1O | inconclusive: 20 µM [inhibitor, partial curve, poor fit] | – |
| CN(C)c1ccc(/C=C/c2ccc3ccccc3n2)cc1 | inconclusive: 12.6 µM [inhibitor, partial curve, poor fit] | – |
| Cc1ccc(N(CCC#N)C(=O)COC(=O)C2=COCCO2)cc1 | inconclusive: 1.12 µM [inhibitor, full curve, poor fit] | – |
| CN1CCN(CC(O)(c2ccc(Cl)cc2)c2ccc(Cl)cc2)CC1 | – | inactive: 10.7% |
| O=C1ON=C(c2ccccc2)/C1=C/c1ccc(OS(=O)(=O)c2ccccc2)cc1 | – | inactive: -9.64% |
| O=C(Nc1ccc(-c2ccc3nncn3n2)cc1)C1CCCC1 | inconclusive: 6.31 µM [inhibitor, single point] | – |
| O=C(Nc1cccc(C(F)(F)F)c1)/C(=C\c1ccco1)NC(=O)c1cccs1 | inconclusive: 20 µM [inhibitor, single point] | – |
| Cc1ccc(Nc2c(-c3ccsc3)nc3cccc(C)n23)cc1 | inconclusive: 35.5 µM [inhibitor, single point] | – |
| CCOc1ccc(-n2c(=O)c3sccc3n(CC(=O)NCC3CCCO3)c2=O)cc1 (stereo not drawn) | inconclusive: 11.2 µM [inhibitor, single point] | – |

| SMILES | Potency | activity, negative = active |
| --- | --- | --- |
| COc1ccc(CNC(=O)C2CCN(S(=O)(=O)c3c(C)noc3/C=C/N(C)C)CC2)cc1 | inconclusive: 28.2 µM [inhibitor, single point] | – |
| CCc1ccc(NCc2cc3ccc(OC)cc3n(CC(=O)Nc3ccc(C(C)C)cc3)c2=O)cc1 | – | inactive: -0.548% |
| COCCNC(=S)NC(=O)c1ccc(C(C)(C)C)cc1 | inconclusive: 35.5 µM [inhibitor, single point] | – |
| Cc1ccc(NC(=O)CCC(=O)NNC(=O)COc2ccccc2)c(C)c1 | inconclusive: 28.2 µM [inhibitor, single point] | – |
| Cc1ccc(S(=O)(=O)NCC(c2ccc(N(C)C)cc2)N2CCc3ccccc32)cc1C (stereo not drawn) | – | inactive: 2.62% |
| COc1cc(SSc2cc(OC)cc([N+](=O)[O-])c2N)c(N)c([N+](=O)[O-])c1 | inconclusive: 6.31 µM [inhibitor, single point] | – |
| Cc1ccc(Nc2cc(C)c(O)c(C)c2)cc1 | inconclusive: 20 µM [inhibitor, single point] | – |
| CCN1CCN(CCOc2ccc(Cl)cc2)CC1 | – | inactive: 2.15% |
| Cc1ccc(/C=C2/Sc3ccc(C(=O)NCc4ccccn4)cc3NC2=O)cc1 | inconclusive: 35.5 µM [inhibitor, single point] | – |
| O=S(=O)(c1cccc(Cl)c1)N1CCSc2ccccc21 | inconclusive: 10 µM [inhibitor, partial curve, poor fit] | – |
| Cc1ccc2c(c1)C(=O)C(=O)N2c1ccc(Cl)cc1 | inconclusive: 35.5 µM [inhibitor, single point] | – |
| Cc1ccc(S(=O)(=O)Nc2cc3c(C(=O)O)c(C)oc3c3ccccc23)c(C)c1 | inconclusive: 15.8 µM [inhibitor, single point] | – |
| CC(C)N(C(=O)[C@H]1C[C@H](CC(=O)NCCCN(C)C)C(=O)N2CCc3c([nH]c4cc(-c5ccco5)ccc34)[C@]12C)C(C)C | inconclusive: 25.1 µM [inhibitor, single point] | – |
| O=[N+]([O-])c1cc(C(F)(F)F)ccc1Sc1ccccn1 | inconclusive: 35.5 µM [inhibitor, single point] | – |
| CCCS(=O)(=O)c1c(S(=O)(=O)CCC)c2ccc(C(N)=O)cn2c1C(=O)OC | – | inactive: -6.74% |
| CCC1Oc2ccc(C)cc2N(CC(=O)NCC2CCCO2)C1=O (stereo not drawn) | inconclusive: 5.62 µM [inhibitor, single point] | – |
| COc1ccc(-n2nc(C(=O)NCCc3ccc(OC)c(OC)c3)c3c4ccccc4n(C)c3c2=O)cc1Cl | – | inactive: -4.68% |
| Cc1c(Cl)cccc1NC(=S)NNc1ncc(C(F)(F)F)cc1Cl | – | inactive: -10.1% |
| COC(=O)C1C2CC3c4[nH]c5cc(OC)ccc5c4CCN3CC2CC(OC2CCCCO2)C1OC (stereo not drawn) | active: 11.2 µM | – |
| Cc1ccc2oc(C(=O)N(C)Cc3ccon3)c(C)c2c1 | – | inactive: -12% |
| NS(=O)(=O)c1cc(C(=O)N2CCNC(=O)C2)ccc1Cl | inconclusive: 35.5 µM [inhibitor, single point] | – |

Structures above that have a cyano group, in the order listed:

| SMILES | Potency | activity, negative = active |
| --- | --- | --- |
| CCOC(=O)c1c(NC(=O)C(C)OC(=O)c2ccc(NC(=O)CC#N)cc2)sc2c1CCCC2 (stereo not drawn) | inconclusive: 25.1 µM [inhibitor, single point] | – |
| CC1(c2ccc3c(c2)OCCO3)NC(=O)N(CC(=O)Nc2ccccc2SCC#N)C1=O (stereo not drawn) | inconclusive: 31.6 µM [inhibitor, single point] | – |
| Cc1ccc(N(CCC#N)C(=O)COC(=O)C2=COCCO2)cc1 | inconclusive: 1.12 µM [inhibitor, full curve, poor fit] | – |
